According to PubChem BioAssay AID652104 (National Center for Advancing Translational Sciences (NCATS), 2013):
What follows is the remainder of the data, with few or none of the hits. Results filed as inconclusive are left out. The source made the active and inactive calls. The call rests on the fitted dose curve; in most records, active means well fitted activation curve with a large enough effect; inconclusive means small, poorly fitted or top-dose-only effect, or another doubt; inactive means no such curve, though single readings can be large or run the other way.

Experiment: qHTS of TDP-43 Inhibitors; further: % of control where 0% means no effect; nearly all actives have a fitted effect of over 50% in size
Details: TDP-43 expressing yeast growth rescue, BacTiter-Glo, 24 h; at 46.1 µM (top of the series)
Text: The goal of this project is to identify new chemical probes capable of reversing the toxicity associated with TDP-43 which is associated with frontotemporal lobar degeneration and amyotrophic lateral sclerosis. These compounds will provide a complementary approach to deciphering the tangled mechanisms of toxicity and protection that we have uncovered through genome-wide genetic screens and are beginning to uncover in a large-scale proteomics analysis with mass spectroscopy.
To this end, a miniaturized assay was developed to be screened against the Molecular Libraries Small Molecule Repository (MLSMR) to discover TDP-43 inhibitors. Please note that in the set-up this yeast-based assay compounds that inhibit as TDP-43, have a read-out as activators.
NIH Chemical Genomics Center [NCGC]
NIH Molecular Libraries Probe Centers Network [MLPCN]
Assay Submitter (PI): Susan Lindquist, Whitehead Institute/MIT
Dispense 2.5 microL yeast galactose medium per 1536-well plate, pin compound, dispense 2.5 microL TDP-43 expressing yeast in galactose medium at OD600=0.02 (pregrown in raffinose medium to mid-log phase) per well, incubate for 24 hr at 30 deg C, and cell growth will be measured using 5 microL of Bactiter/Glo reagent to entire plate and read using Luminescence Protocol in ViewLux.

SMILES	growth rescue (activation)
CCCCCCCCc1ccc(O)cc1	inactive: -90.8%
